Reference: PubChem BioAssay AID2685 (National Center for Advancing Translational Sciences (NCATS), 2010)
The other results are listed elsewhere or left out. Further columns of the screen follow, without active or inactive calls. Compounds called inactive in the main read-out are mostly missing here. Potencies come from curve fits of mixed quality, noted in brackets.

Assay: qHTS Assay for Lipid Storage Modulators in Drosophila S3 Cells;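 on cell number change: cells counted by Cell Tracker Red CMTPX staining in the red channel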
Conditions: BODIPY lipid droplet fluorescence, 18-24 h; for cell number change: measured here: cell count max response, cells fed with added oleic acid
Summary of the method: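 Drosophila S3 cells loaded with oleic acid (400 uM, as added) and compounds at several concentrations; lipid droplets imaged by 488-nm laser-scanning cytometry, 500–530 nm intensity and object ratio to cell channel. Percent activity normalized to 20 uM Triacsin C.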

[1] = measured here: lipid fluorescence (Fed channel) AC50, cells fed with added oleic acid
[2] = measured here: cell number channel AC50, cells fed with added oleic acid

Compound	cell number change	AC50 [1]	AC50 [2]
CC(C)c1ccc(S(=O)(=O)N2CCN(CC(=O)Nc3ccc(Cl)cc3F)CC2)cc1	-6.1%	6510 nM [falling, single point]	–
FC(F)(F)c1cccc(/C=N/NC(=S)NC2CCCCC2)c1	-26%	–	6510 nM [rising, single point]
Fc1ccccc1OCCSc1nnnn1-c1ccccc1	315%	14600 nM [rising, partial curve]	20600 nM [rising, partial curve]
CCN(CC)S(=O)(=O)c1cccc(C(=O)OCC(=O)NCc2ccccc2OC)c1	3.1%	–	–
Cc1cccc(N2CCN(C(=O)Cn3c(=O)[nH]c4ccsc4c3=O)CC2C)c1 (centres undefined)	42.7%	116 nM [falling, full curve, poor fit]	29100 nM [rising, single point]
CCCCNC(=S)NNC(=O)c1cc(-c2cccnc2)nc2ccccc12	32.1%	–	–
CCOC(=O)c1cccc(NC(=O)CCOc2ccccc2)c1	-6.44%	23100 nM [falling, single point]	–
CN1/C(=C\C=O)C(C)(C)c2ccccc21	24.9%	130 nM [rising, full curve, poor fit]	164 nM [rising, full curve, poor fit]
COc1ccc(NC(=O)Nc2cccc3ccccc23)cc1S(N)(=O)=O	21.4%	–	326 nM [rising, full curve, poor fit]
COC(=O)C1CCN(C(=O)/C=C/c2ccc3c(c2)OCO3)CC1	16.8%	–	–
Cc1ccc(S(=O)(=O)N2CCC(C)CC2)cc1C(=O)NCCN1CCOCC1	-4.97%	116 nM [falling, full curve, poor fit]	–
Cc1ccc(CNC(=O)Cc2ccc(-c3ccccc3)cc2)cc1	-15.4%	20600 nM [falling, single point]	–
COc1ccc(NC(=O)c2ccccc2SC)c(OC)c1	-39.2%	–	–
N#CC(C(=O)C12CC3CC(CC(C3)C1)C2)c1nc2ccccc2[nH]1 (centres undefined)	1.08%	5.17 nM [falling, full curve, poor fit]	–
Cc1c(-c2ccc(Br)cc2)[n+](=O)c2c(n1[O-])CCCC2	-14.8%	4.61 nM [rising, full curve, poor fit]	–
CCn1nnnc1SCC(=O)Nc1sc(C)c(C)c1C#N	13.2%	2310 nM [rising, partial curve]	517 nM [rising, partial curve]
Nc1cc(Cl)ccc1Oc1ccc2ccccc2c1	-33.8%	–	6510 nM [rising, single point]

An excerpt of these results, bar-delimited.
Compound | cell number change | AC50 [1] | AC50 [2]
CC(C)c1ccc(S(=O)(=O)N2CCN(CC(=O)Nc3ccc(Cl)cc3F)CC2)cc1 | -6.1% | 6510 nM [falling, single point] | –
CCN(CC)S(=O)(=O)c1cccc(C(=O)OCC(=O)NCc2ccccc2OC)c1 | 3.1% | – | –
